{"source": "paper doi:10.1101/551929", "key": {"[1]": {"target": "T1, Strep-tagged full-length VgrG2b (PA0262) (Pseudomonas aeruginosa) (UniProt Q9I6M7)", "T1 sequence": "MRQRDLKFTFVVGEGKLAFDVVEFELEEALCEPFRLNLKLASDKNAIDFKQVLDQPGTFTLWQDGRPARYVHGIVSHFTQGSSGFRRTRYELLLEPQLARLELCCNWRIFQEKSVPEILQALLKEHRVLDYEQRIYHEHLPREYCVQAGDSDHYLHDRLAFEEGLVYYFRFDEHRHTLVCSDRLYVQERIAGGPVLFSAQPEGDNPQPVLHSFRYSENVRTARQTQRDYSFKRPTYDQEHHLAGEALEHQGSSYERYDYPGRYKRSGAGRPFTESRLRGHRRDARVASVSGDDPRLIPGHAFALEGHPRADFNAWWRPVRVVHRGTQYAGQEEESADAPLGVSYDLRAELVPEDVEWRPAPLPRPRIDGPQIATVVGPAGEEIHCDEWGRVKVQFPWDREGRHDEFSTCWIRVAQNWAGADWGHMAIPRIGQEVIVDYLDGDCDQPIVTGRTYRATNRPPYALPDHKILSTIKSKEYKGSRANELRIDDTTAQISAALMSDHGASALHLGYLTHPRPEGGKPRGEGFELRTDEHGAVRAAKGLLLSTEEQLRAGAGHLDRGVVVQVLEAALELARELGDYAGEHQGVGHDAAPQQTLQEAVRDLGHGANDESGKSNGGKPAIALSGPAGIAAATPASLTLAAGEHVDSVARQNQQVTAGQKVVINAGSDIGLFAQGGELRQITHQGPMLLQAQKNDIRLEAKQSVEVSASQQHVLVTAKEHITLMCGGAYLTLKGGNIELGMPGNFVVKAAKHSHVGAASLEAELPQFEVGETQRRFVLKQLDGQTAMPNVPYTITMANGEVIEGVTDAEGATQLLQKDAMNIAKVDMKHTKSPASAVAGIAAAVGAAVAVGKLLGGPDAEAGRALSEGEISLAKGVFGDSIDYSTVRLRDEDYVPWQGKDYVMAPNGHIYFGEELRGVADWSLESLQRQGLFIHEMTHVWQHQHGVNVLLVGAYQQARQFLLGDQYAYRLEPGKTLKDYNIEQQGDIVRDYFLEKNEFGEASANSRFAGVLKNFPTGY", "assay": "pull-down"}, "[2]": {"target": "cytoplasmic Strep-tagged Tla3 (PA0259), mature domain (Pseudomonas aeruginosa)", "assay": "pull-down"}, "[3]": {"target": "PA0259 (Tla3) first DUF2875 domain alone (BACTH) (Pseudomonas aeruginosa)", "assay": "two-hybrid"}, "[4]": {"target": "PA0259 (Tla3) second DUF2875 domain alone (BACTH) (Pseudomonas aeruginosa)", "assay": "two-hybrid"}}, "note": "No constants are given. Whether binding was seen depends on the method and setting. For some of these results: In cells and extracts the contact can be indirect. For some of these results: Binding calls can cover weak binding; strength is not graded here. Tags and fused reporters may be left off the sequences shown."}
{"molecule": "cytoplasmic 10His-tagged Tla3 (PA0259), mature domain (Pseudomonas aeruginosa)", "values": [{"measurement": "binding", "setting": "[1]", "value": "binds"}]}
{"molecule": "cytoplasmic His10-tagged Tle3 (PA0260) (protein, UniProt Q9I6M9 1-716) MNDRVRSRTIVSAQSITLPKGGDVHLVPPPPKPCVTIVVHGVNDLAGCYERIERGLCQGLNERLDMPPTLPGGQANPGYLTPAGYSLPADDEGKAENPDVVYYRRKFASGAGGAAVRSVVVPFYWGFREEEQYINKTAAHGEWLDRNGNRLDKSGTKEGGQFVNATTNLPDMWGQGFNGKLFGFISLDWFGGTMTHPLFSAAGRKYMVLAAMRLAMLIKIIRKRYPDDTINVVGHSQGTLLTLLAHAFLKDDGVAPADGVIMLNSPYGLFEPLNEKLQGWSSQQTREARLATLKGILEFICGRRHPVPALSSVALRNCQGYGAIGGPGWVGGQGCQTTIDGERLSFDERDNRGSVYLYFTPQDQTVGLANVQGIGWRGIAEQVKGLPGRTGLPQGFHQRIFTVRKRNGEKEKIGGHAPPHVYPLLLAGEKTWEDTGLGGKDRFGRANFDQGDSVLLTAPRLPLPTEARFDFDGAVTAPGENSASGVYQVRDTLDPIDAAIGVSNGGWKEKDSGHAVAQQVDAALAYRYGRDARSVERALNEGKELAQQTHVFSARELGTGMVLVTRAETPYEARLRLQTAEGHLEPLSFHSAIPNNPEHNRRVLAYDLAIGAGDSVDDVVFYQYLCRVADWRLDWKASDKGIFSQGDASVDLPDEEVRALYRAEESKNSQLIDATVAYRKSGEFPVVVGNRLPSLVGTQTILDRYHEQAVRFGGTI", "values": [{"measurement": "binding", "setting": "[2]", "value": "binds"}]}
{"molecule": "Tle3 fused downstream of the T18 or T25 domain (BACTH) (protein, UniProt Q9I6M9 1-716) MNDRVRSRTIVSAQSITLPKGGDVHLVPPPPKPCVTIVVHGVNDLAGCYERIERGLCQGLNERLDMPPTLPGGQANPGYLTPAGYSLPADDEGKAENPDVVYYRRKFASGAGGAAVRSVVVPFYWGFREEEQYINKTAAHGEWLDRNGNRLDKSGTKEGGQFVNATTNLPDMWGQGFNGKLFGFISLDWFGGTMTHPLFSAAGRKYMVLAAMRLAMLIKIIRKRYPDDTINVVGHSQGTLLTLLAHAFLKDDGVAPADGVIMLNSPYGLFEPLNEKLQGWSSQQTREARLATLKGILEFICGRRHPVPALSSVALRNCQGYGAIGGPGWVGGQGCQTTIDGERLSFDERDNRGSVYLYFTPQDQTVGLANVQGIGWRGIAEQVKGLPGRTGLPQGFHQRIFTVRKRNGEKEKIGGHAPPHVYPLLLAGEKTWEDTGLGGKDRFGRANFDQGDSVLLTAPRLPLPTEARFDFDGAVTAPGENSASGVYQVRDTLDPIDAAIGVSNGGWKEKDSGHAVAQQVDAALAYRYGRDARSVERALNEGKELAQQTHVFSARELGTGMVLVTRAETPYEARLRLQTAEGHLEPLSFHSAIPNNPEHNRRVLAYDLAIGAGDSVDDVVFYQYLCRVADWRLDWKASDKGIFSQGDASVDLPDEEVRALYRAEESKNSQLIDATVAYRKSGEFPVVVGNRLPSLVGTQTILDRYHEQAVRFGGTI", "values": [{"measurement": "binding", "setting": "[3]", "value": "no binding"}, {"measurement": "binding", "setting": "[4]", "value": "no binding"}]}
